From PubChem BioAssay AID1671190 (National Center for Advancing Translational Sciences (NCATS), 2021)
In all, about 580,000 compounds went through this assay and about 6,100 (1.1%) were called active. This list was built around the results that the source calls inconclusive (neither active nor inactive); the mix of calls is not that of the screen. The call rests on the fitted dose curve; in most records, active means well fitted inhibition curve with a large enough effect; inconclusive means small, poorly fitted or top-dose-only effect, or another doubt; inactive means no such curve, though single readings can be large or run the other way. Potencies beside an inconclusive call are fits to weak or partial responses and may not hold up.

The chains behind the UniProt entries cited, without tags or fusion partners. Where a name states a change or a piece, a line headed by the entry shows the natural chain unless it says otherwise.
UniProt P18054: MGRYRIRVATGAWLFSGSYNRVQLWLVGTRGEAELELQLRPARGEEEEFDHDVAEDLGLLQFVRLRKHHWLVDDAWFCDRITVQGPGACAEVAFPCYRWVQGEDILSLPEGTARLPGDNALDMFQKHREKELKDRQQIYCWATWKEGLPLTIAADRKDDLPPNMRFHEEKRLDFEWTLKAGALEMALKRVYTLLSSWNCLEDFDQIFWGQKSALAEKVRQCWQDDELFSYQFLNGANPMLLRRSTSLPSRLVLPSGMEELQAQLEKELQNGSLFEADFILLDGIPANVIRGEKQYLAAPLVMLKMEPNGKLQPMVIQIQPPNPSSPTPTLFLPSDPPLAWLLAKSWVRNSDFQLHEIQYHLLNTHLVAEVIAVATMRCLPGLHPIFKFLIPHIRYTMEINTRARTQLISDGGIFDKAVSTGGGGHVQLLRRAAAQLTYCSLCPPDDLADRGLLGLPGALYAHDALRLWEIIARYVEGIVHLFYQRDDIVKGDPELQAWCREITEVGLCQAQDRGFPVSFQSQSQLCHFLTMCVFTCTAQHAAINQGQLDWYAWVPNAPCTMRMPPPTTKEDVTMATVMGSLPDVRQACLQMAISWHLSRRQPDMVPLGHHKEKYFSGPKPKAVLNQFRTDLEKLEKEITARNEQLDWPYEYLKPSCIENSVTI

target: Polyunsaturated fatty acid lipoxygenase ALOX12 (Homo sapiens) (UniProt P18054); assay: Primary qHTS assay for inhibitors of human arachidonate 12S-lipoxygenase (ALOX12): Round 2; settings: purified 12hLO, xylenol orange hydroperoxide absorbance; activity change, negative = inhibition: at 108 µM (top of the series) unless noted
How it was run: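 Purified human 12hLO at 150 nM in 25 mM Hepes, 0.01% Triton X-100, pH 7.0, preincubated 15 min at room temperature with compound. Reaction started with 40 uM arachidonic acid, 30 min at room temperature. Hydroperoxide measured by Fe-xylenol orange, 573/405 nm absorbance ratio.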
On the % scale 0 is the no-effect control and ±100 the full control effect; potency means the concentration at half of the fitted maximal effect.

Row | SMILES | activity change, negative = inhibition | Potency
1 | CCOC(=O)C1=C(C)NC(=O)CC1c1ccccc1OC (stereo not given) | inactive: 21.7% | 
2 | COc1ccc(C(=O)Nc2ccc(C(=O)NCCc3ccccc3)cc2)cc1 |  | inconclusive: 44.7 µM [inhibitor, partial curve, poor fit]
3 | O=C1c2ccccc2-c2cc(NCc3ccccc3)nc3cccc1c23 |  | inconclusive: 44.7 µM [inhibitor, partial curve, poor fit]
4 | CCN(CC)c1ccc(NC(=O)c2sc3ccccc3c2Cl)cc1 | inactive: -26.6% | 
5 | CN1CC(=O)N(c2cccnc2)Cc2c(NCC3CCCCC3)ncnc21 | inactive: -0.792% | 
6 | N#C/C(=C/C=C/c1ccccc1)C(=O)NC1CC1 | inactive: -0.378% | 
7 | CCC1CCCCN1C(=O)CSc1nc2ccccc2n1CCC#N (stereo not given) | inactive: 44.2% | 
8 | Cn1c(=O)c(-c2noc(C(=O)NCc3ccco3)n2)nn(-c2ccccc2)c1=O |  | inconclusive: 44.7 µM [inhibitor, partial curve, poor fit]
9 | O=C(/C=C/c1ccccc1)NC(=S)Nc1ccc2c3c(cccc13)CC2 | inactive: -1.52% | 
10 | Cc1ccc(N(C)S(=O)(=O)c2nnc(NC(=O)CC(C)C)s2)cc1 | inactive: 0.757% | 
11 | O=C(/C(Br)=C\Nc1ccc(F)cc1)C(F)(F)F |  | inconclusive: 50.1 µM [inhibitor, partial curve, poor fit]
12 | Cc1cc(C)c2nc(SCC(=O)Nc3ccc(S(=O)(=O)N4CCCC4)cc3)c(C)cc2c1 |  | inconclusive: 1.26 µM [inhibitor, full curve, poor fit]
13 | COc1ccc(NC(=O)C(Cc2ccccc2)NS(=O)(=O)c2ccc3c(c2)CCN3C(C)=O)cc1 (stereo not given) |  | inconclusive: 100 µM [inhibitor, single point]
14 | CCOC(=O)c1cc(OC(=O)c2ccc(OC)cc2)n(-c2ccccc2)n1 |  | inconclusive: 11.2 µM [inhibitor, full curve]
15 | COc1ccc(CCNC(=O)C2CCCN(c3nc(C)cc(C)n3)C2)cc1 (stereo not given) |  | inconclusive: 126 µM [inhibitor, partial curve, poor fit]
16 | O=C(Nc1cccc(F)c1)C1CCN(C(=O)c2ncn3c2COC(c2ccccc2)C3)CC1 (stereo not given) | inactive: -6.62% | 
17 | Clc1ccc(CONc2ncnc3nonc23)c(Cl)c1 |  | inconclusive: 79.4 µM [inhibitor, partial curve, poor fit]
18 | Cc1ccc(NC(=O)CSc2nc(-c3ccco3)ccc2C#N)cc1C | inactive: -26% | 
19 | COc1cc(NC(=O)c2cc3c(C)nc4ccccc4c3o2)cc(OC)c1OC | inactive: -3.04% | 
20 | Fc1ccc(-n2nnnc2-c2cnc(-c3cccs3)nc2C(F)(F)F)cc1 | inactive: 3.52% | 
21 | CN1CCN(c2ncc3nc(-c4ccc(Cl)cc4)c(=O)n(C4CC4)c3n2)CC1 |  | inconclusive: 44.7 µM [inhibitor, single point]
22 | CCOc1ccc(C(=O)NC(=S)Nc2ccc(N3CCCCC3)cc2)cc1[N+](=O)[O-] |  | inconclusive: 44.7 µM [inhibitor, partial curve, poor fit]
23 | Cc1ccc(C2CC(c3cccs3)=NN2C(=O)CCl)cc1 (stereo not given) |  | inconclusive: 25.1 µM [inhibitor, partial curve, poor fit]

Entries 14 to 17, reprinted for reference:
Row | SMILES | activity change, negative = inhibition | Potency
14 | CCOC(=O)c1cc(OC(=O)c2ccc(OC)cc2)n(-c2ccccc2)n1 |  | inconclusive: 11.2 µM [inhibitor, full curve]
15 | COc1ccc(CCNC(=O)C2CCCN(c3nc(C)cc(C)n3)C2)cc1 (stereo not given) |  | inconclusive: 126 µM [inhibitor, partial curve, poor fit]
16 | O=C(Nc1cccc(F)c1)C1CCN(C(=O)c2ncn3c2COC(c2ccccc2)C3)CC1 (stereo not given) | inactive: -6.62% | 
17 | Clc1ccc(CONc2ncnc3nonc23)c(Cl)c1 |  | inconclusive: 79.4 µM [inhibitor, partial curve, poor fit]

(list continues)

Row | SMILES | activity change, negative = inhibition | Potency
24 | Cc1ccc(C(=O)C(OC(=O)c2cccc(N(C)C)c2)c2ccc(C)cc2)cc1 (stereo not given) |  | inconclusive: 28.2 µM [inhibitor, full curve, poor fit]
25 | CCOC(=O)c1c(-c2ccccc2)csc1NC(=O)CSc1nc(N)cc(N)n1 |  | inconclusive: 44.7 µM [inhibitor, partial curve, poor fit]
26 | CC(C)(C)NC(=O)CCCSc1nc2ccccc2s1 | inactive: 0.702% | 
27 | Cc1cnc2c(S(=O)(=O)N(C)C3CCCCCC3)cccc2c1 |  | inconclusive: 15.8 µM [inhibitor, full curve]
28 | Cc1cc(C)n(-c2nc3c(c(=O)n(Cc4ccc(F)cc4)c(=O)n3C)n2CCC(C)C)n1 |  | inconclusive: 112 µM [inhibitor, single point]
29 | CC(C)Cc1nc(C#N)c(NC(C)c2ccccc2)o1 (stereo not given) |  | inconclusive: 158 µM [inhibitor, partial curve, poor fit]
30 | O=C(COC(=O)c1ccc2c(c1)OCCO2)NCc1ccccc1Cl |  | inconclusive: 112 µM [inhibitor, single point]
31 | CCCn1c(Nc2ccccc2C)nc2ccccc21 | inactive: -3.76% | 
32 | O=C(Nc1ccc(N2CCOCC2)cc1)c1cc(-c2ccncc2)nc2ccccc12 |  | inconclusive: 112 µM [inhibitor, partial curve, poor fit]
33 | O=C(NCC1CCCO1)C(c1ccncc1)N(Cc1ccc(F)cc1)C(=O)CN1C(=O)c2ccccc2S1(=O)=O (stereo not given) |  | inconclusive: 0.1 µM [inhibitor, full curve, poor fit]
34 | CCn1ncc(/C=N/NC(=O)c2ccc3c(c2)OCO3)c1C |  | inconclusive: 10 µM [inhibitor, full curve, poor fit]
35 | O=C(NC1CCN(c2cc(-c3cccs3)[nH]n2)C1)c1cccc(Cl)c1 (stereo not given) | inactive: 48.1% | 
36 | C/C(=N\NC(=O)CN(c1ccc(C)cc1)S(C)(=O)=O)c1cccs1 |  | inconclusive: 1.12 µM [inhibitor, full curve, poor fit]
37 | Fc1ccc(NC(=S)NCC(c2ccccc2)c2ccccc2)cc1 |  | inconclusive: 44.7 µM [inhibitor, partial curve, poor fit]
38 | CCO[C@H]1OC(C(=O)N2CCN(Cc3ccc4c(c3)OCO4)CC2)=C[C@@H](c2ccc(C(F)(F)F)cc2)[C@@H]1CCCO |  | inconclusive: 79.4 µM [inhibitor, single point]
39 | Cc1c(CC(=O)NCc2cccnc2)c2c(n1CC(C)C)CC(C)(C)CC2=O | inactive: -21.8% | 
40 | O=C(OCc1ccc(Br)cc1)c1cnccn1 | inactive: -25.5% | 
41 | Cc1ccc(Cn2c(SCCO)nc3c2c(=O)[nH]c(=O)n3C)cc1 |  | inconclusive: 44.7 µM [inhibitor, partial curve, poor fit]
42 | O=C(COC(=O)/C=C/c1cccc2cccnc12)Nc1ccc(O)cc1 | inactive: 2.37% | 
43 | O=C(O)C1CN(C(=O)N2CCOCC2)CCN(C2CCOCC2)C1 (stereo not given) | inactive: -10.4% | 
44 | O=C(O)c1cnc(-c2ccccc2)nc1Sc1cccc(Cl)c1 | inactive: -2.98% | 
45 | CCn1cnc2c1c(=O)n(CC(=O)NCc1ccccc1)c(=O)n2Cc1ccccc1 |  | inconclusive: 79.4 µM [inhibitor, single point]
